PubChem BioAssay AID1224830 | NIAID, 2016
Test: 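Regulators of TLR4 signalling towards TNF-alpha in macrophage-like cells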 (primary screen). Cells: human THP-1 monocytic leukaemia cells, TNF dual-luciferase reporter clone, PMA-differentiated to macrophage-like cells. Knock-down reagent: siRNA pool against human genes, 50 nM. Timing: LPS for 4 h, given about 3 days after siRNA transfection. Challenge: bacterial LPS (TLR4 ligand), 10 ng/ml. Measured: 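TNF firefly reporter luminescence divided by renilla, normalised to the plate median, then turned into a robust z-score for each replicate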. Scale: TNF reporter robust z-score: higher = stronger TNF reporter response to LPS. Rule for the call: 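Each well counts as active if its z-score is over 2.8 or under -1.5; controls are left without a call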.
The whole screen tested about 18,000 reagents; shown is an unselected part. About 2,900 of all reagents (16%) were called active. 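Calls are made per well; low scores hint the gene aids the LPS response, high scores that it dampens it.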 Unmarked entries are inactive. Repeated entries: four replicate wells of each siRNA pool.

| Gene | TNF reporter robust z-score |
| --- | --- |
| PIR | 0.96 |
| PIR | -0.01 |
| PIR | -0.16 |
| PIR | 0 |
| LBX2 | -1.31 |
| LBX2 | -0.53 |
| LBX2 | -1.35 |
| LBX2 | -0.6 |
| REX1BD | -0.85 |
| REX1BD | 0.79 |
| REX1BD | 0.37 |
| REX1BD | -0.22 |
| SDSL | -1.8 (active) |
| SDSL | -0.66 |
| SDSL | -1.51 (active) |
| SDSL | -0.62 |
| DNAJC13 | 0.84 |
| DNAJC13 | 0.58 |
| DNAJC13 | 0.63 |
| DNAJC13 | 0.98 |
| ZNF558 | 0.92 |
| ZNF558 | 1.58 |
| ZNF558 | 0.44 |
| ZNF558 | 0.25 |
| PMS1 | -0.1 |
| PMS1 | -0.29 |
| PMS1 | -1.02 |
| PMS1 | 0.04 |
| FAM131C | -0.96 |
| FAM131C | 2.45 |
| FAM131C | -0.31 |
| FAM131C | 1.6 |
| SUN5 | 1.91 |
| SUN5 | 1.32 |
| SUN5 | 1.01 |
| SUN5 | 1.19 |
| HOMER1 | 0.77 |
| HOMER1 | 1.28 |
| HOMER1 | 0 |
| HOMER1 | 1.04 |
| OGDH | 0.17 |
| OGDH | 0.42 |
| OGDH | 0.1 |
| OGDH | 0.72 |
| DDHD1 | 1.37 |
| DDHD1 | 1.65 |
| DDHD1 | 0.4 |
| DDHD1 | -0.11 |
| UBE3C | 0.66 |
| UBE3C | 0.34 |
| UBE3C | -0.01 |
| UBE3C | 0.11 |
| DDX27 | 1.39 |
| DDX27 | -0.55 |
| DDX27 | -0.17 |
| DDX27 | 0.28 |
| BAG5 | -1.36 |
| BAG5 | -0.61 |
| BAG5 | -0.27 |
| BAG5 | -0.88 |
| C1orf116 | 0.47 |
| C1orf116 | 0.37 |
| C1orf116 | -0.1 |
| C1orf116 | 0.11 |
| TPD52L2 | -0.08 |
| TPD52L2 | 1.96 |
| TPD52L2 | 0.8 |
| TPD52L2 | 0.16 |
| NSUN3 | -1.85 (active) |
| NSUN3 | -1.49 |
| NSUN3 | -0.94 |
| NSUN3 | -0.89 |

Next part, starting with the last 2 of the part before.
| Gene | TNF reporter robust z-score |
| --- | --- |
| NSUN3 | -0.94 |
| NSUN3 | -0.89 |
| EPRS1 | 0.52 |
| EPRS1 | 0.85 |
| EPRS1 | -0.18 |
| EPRS1 | 1.62 |
| DCTN2 | 0.34 |
| DCTN2 | 0.28 |
| DCTN2 | -0.48 |
| DCTN2 | 0.62 |
| SPHK1 | -0.98 |
| SPHK1 | -0.55 |
| SPHK1 | -0.65 |
| SPHK1 | -1.21 |
| TNFRSF25 | 0.68 |
| TNFRSF25 | -0.34 |
| TNFRSF25 | 3.16 (active) |
| TNFRSF25 | 1.9 |
| FOXG1 | -0.56 |
| FOXG1 | -0.5 |
| FOXG1 | 1.02 |
| FOXG1 | 0 |
| C4orf36 | -0.89 |
| C4orf36 | -0.3 |
| C4orf36 | -0.55 |
| C4orf36 | -0.48 |
| CD44 | -1.41 |
| CD44 | -0.92 |
| CD44 | -0.05 |
| CD44 | -0.47 |
| CNOT11 | -0.95 |
| CNOT11 | -0.72 |
| CNOT11 | -0.84 |
| CNOT11 | -1.47 |
| TRUB1 | 0.78 |
| TRUB1 | 0.39 |
| TRUB1 | 1.16 |
| TRUB1 | 0.09 |
| DSG4 | 1.86 |
| DSG4 | 1.96 |
| DSG4 | -0.27 |
| DSG4 | -0.35 |
